Experimental data published in US6465521B1, “Composition for desorbing bacteria” (Ramot University Authority for Applied Research & …, priority 1988, dated 2002).
At least one structure is not confirmed: it was looked up by name or label, or the drawing left a doubt.

Tested on: bacteria and debris of the expectorate
Test: Turbidity of saline mouth expectorate after vortexing with mineral oil 50
Parameters: species or system volunteer
Conditions: 0.18 ml of 0.5% cetylpyridinium chloride to 1 ml expectorate, vortexed 2 minutes

Q: For `CCCCCCCCCCCCCCCC[n+]1ccccc1` [Cetylpyridinium chloride, cetylpyridinium chloride], which “turbidity of the expectorate” value is on record?
A: greatly reduced
